From paper PMC4420617
No constants are given. Whether binding was seen depends on the method and setting. Binding seen in cells or lysates may run through a third protein. Binding can be weak; no strength is given.

Chains of the proteins cited; added tags and fusions are not shown. Lines headed by an entry give the natural chain unless they say otherwise; changes in a name come on top.
UniProt Q96ST3: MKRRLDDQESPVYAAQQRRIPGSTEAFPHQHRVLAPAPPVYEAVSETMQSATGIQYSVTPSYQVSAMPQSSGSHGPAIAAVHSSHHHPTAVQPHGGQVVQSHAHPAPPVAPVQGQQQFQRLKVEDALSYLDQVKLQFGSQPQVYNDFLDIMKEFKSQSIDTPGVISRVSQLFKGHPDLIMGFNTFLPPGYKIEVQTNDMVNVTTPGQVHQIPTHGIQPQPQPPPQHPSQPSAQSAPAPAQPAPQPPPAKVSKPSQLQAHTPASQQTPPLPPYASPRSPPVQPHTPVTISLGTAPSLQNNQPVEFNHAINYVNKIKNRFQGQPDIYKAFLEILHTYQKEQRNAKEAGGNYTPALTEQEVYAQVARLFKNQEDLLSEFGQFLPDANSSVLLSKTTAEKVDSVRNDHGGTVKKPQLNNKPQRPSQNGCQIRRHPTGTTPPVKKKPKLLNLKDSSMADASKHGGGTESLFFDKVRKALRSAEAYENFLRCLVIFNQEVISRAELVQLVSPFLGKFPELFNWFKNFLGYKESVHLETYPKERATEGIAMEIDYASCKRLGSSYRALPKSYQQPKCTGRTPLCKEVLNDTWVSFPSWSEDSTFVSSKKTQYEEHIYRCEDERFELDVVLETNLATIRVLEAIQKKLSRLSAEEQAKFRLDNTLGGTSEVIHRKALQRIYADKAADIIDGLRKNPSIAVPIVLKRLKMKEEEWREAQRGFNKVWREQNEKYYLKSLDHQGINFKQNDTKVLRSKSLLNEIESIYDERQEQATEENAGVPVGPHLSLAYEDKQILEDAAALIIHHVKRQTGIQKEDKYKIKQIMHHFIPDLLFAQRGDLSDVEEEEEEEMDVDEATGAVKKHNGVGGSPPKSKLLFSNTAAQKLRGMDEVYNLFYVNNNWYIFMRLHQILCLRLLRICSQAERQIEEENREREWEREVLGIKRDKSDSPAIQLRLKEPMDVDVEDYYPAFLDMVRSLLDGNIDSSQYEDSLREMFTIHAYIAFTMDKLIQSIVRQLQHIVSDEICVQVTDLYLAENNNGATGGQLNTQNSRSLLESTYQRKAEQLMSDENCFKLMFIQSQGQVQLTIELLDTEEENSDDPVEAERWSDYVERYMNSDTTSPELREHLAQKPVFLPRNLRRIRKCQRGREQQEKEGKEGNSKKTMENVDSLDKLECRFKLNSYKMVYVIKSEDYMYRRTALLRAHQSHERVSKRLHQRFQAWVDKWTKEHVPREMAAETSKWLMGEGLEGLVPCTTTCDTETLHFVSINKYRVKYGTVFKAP
UniProt Q13547: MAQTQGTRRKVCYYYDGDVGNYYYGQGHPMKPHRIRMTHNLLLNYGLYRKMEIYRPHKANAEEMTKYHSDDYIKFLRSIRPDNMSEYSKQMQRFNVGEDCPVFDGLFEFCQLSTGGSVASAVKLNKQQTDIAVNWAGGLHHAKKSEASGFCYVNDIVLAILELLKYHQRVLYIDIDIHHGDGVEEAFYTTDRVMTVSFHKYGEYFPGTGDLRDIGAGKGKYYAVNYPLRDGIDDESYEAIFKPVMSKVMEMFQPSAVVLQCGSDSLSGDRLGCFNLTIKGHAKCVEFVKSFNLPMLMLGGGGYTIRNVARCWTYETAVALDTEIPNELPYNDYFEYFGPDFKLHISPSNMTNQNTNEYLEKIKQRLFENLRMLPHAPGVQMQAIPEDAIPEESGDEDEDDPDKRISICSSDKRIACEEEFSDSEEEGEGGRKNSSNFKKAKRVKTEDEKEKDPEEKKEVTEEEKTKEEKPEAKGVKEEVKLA

B1: Suppressor of Defective Silencing 3 (protein, UniProt Q9H7L9 1-328)
chain: MSAAGLLAPAPAQAGAPPAPEYYPEEDEELESAEDDERSCRGRESDEDTEDASETDLAKHDEEDYVEMKEQMYQDKLASLKRQLQQLQEGTLQEYQKRMKKLDQQYKERIRNAELFLQLETEQVERNYIKEKKAAVKEFEDKKVELKENLIAELEEKKKMIENEKLTMELTGDSMEVKPIMTRKLRRRPNDPVPIPDKRRKPAPAQLNYLLTDEQIMEDLRTLNKLKSPKRPASPSSPEHLPATPAESPAQRFEARIEDGKLYYDKRWYHKSQAIYLESKDNQKLSCVISSVGANEIWVRKTSDSTKMRIYLGQLQRGLFVIRRRSAA

Key:
[1] = target: Sin3A HDAC-interaction domain (HID), flag-tagged (UniProt Q96ST3); assay: co-IP; binary co-expression of HDAC1 and Sin3A without SDS3 in HEK 293F, purified by these protocols; details not told; limited yields
[2] = target: Sin3A HDAC-interaction domain (HID), flag-tagged (UniProt Q96ST3); assay: co-IP; flag-tagged Sin3A-HID co-expressed with untagged HDAC1 and SDS3 in HEK 293F; whole cell extract on anti-flag agarose resin, 30-120 min at 4 °C; 100 mM potassium acetate, 50 mM Tris pH 7.5, 5% glycerol, 0.3% Triton X-100; washes up to 300 mM potassium acetate; eluted by TEV cleavage; SDS-PAGE, Coomassie stain

| Molecule | binding [1] | binding [2] |
| --- | --- | --- |
| Histone Deacetylase 1 (from UniProt Q13547 1-482) (enzyme) | binds | binds |
| B1 | – | binds |
